These results are taken from patent US20090181003A1, “Regulation of S6 Kinsase Protein Activity and Related Methods” (priority 2005, published 2009).

The chains behind the UniProt entries cited, without tags or fusion partners. Where a name states a change or a piece, a line headed by the entry shows the natural chain unless it says otherwise.
UniProt P23443: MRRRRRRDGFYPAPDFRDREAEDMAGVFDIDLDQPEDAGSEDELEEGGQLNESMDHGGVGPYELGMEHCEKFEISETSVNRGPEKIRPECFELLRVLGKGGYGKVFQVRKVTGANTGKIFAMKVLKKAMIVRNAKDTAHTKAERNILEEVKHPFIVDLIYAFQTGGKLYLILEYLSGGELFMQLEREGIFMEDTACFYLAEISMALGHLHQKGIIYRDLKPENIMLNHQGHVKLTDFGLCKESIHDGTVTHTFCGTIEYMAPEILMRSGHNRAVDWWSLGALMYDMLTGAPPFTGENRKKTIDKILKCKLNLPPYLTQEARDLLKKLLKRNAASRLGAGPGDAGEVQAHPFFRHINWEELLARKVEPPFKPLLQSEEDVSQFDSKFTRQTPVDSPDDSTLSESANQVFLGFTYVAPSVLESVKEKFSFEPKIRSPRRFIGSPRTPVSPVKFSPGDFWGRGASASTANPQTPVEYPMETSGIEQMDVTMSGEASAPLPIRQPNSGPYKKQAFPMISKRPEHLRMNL

Results are given in words; binding and its absence hold for the method and conditions named. Some entries that bind do so weakly or less than the wild type.

The target of the assay is p300/Gal4 DNA binding domain (DBD) fusion (UniProt P04386). The experiment in a line: anti-EE immunoprecipitation from cotransfected HEK 293 cells, anti-Gal4 DBD western blot.

For the substance “EE-tagged S6K1 (from UniProt P23443 1-525) (enzyme)”, the binding entry is listed as “binds”.
